From US20210040169A1
These are yes or no findings as the source states them, for the method shown. Some results given as binding are weak or reduced against the parent protein; the word gives no strength.

Target: T1, mouse IL-10 receptor (IL-10R) (mouse) (UniProt Q61727)
T1 sequence (looked up): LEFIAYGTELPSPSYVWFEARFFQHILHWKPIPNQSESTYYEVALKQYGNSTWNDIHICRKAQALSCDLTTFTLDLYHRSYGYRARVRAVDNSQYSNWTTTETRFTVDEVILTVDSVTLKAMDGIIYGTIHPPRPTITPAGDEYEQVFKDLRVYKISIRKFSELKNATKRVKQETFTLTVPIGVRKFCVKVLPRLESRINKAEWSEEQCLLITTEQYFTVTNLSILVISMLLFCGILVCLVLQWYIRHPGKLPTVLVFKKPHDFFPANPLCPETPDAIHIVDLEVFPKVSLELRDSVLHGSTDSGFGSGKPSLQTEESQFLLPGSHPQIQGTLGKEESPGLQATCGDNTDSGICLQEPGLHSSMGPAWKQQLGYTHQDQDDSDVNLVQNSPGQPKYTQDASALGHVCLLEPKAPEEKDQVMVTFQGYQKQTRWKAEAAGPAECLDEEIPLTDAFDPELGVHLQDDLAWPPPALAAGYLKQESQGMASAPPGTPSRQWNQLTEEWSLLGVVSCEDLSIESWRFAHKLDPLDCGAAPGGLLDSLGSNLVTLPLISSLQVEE
Assay: flow cytometry of mRNA-electroporated mouse NOD CD4 T cells, 48 h; loss of anti-IL-10R mAb staining

- binding: binds
Substance: mouse memIL-10 (membrane-anchored single-chain homodimeric IL-10, short linker) (from UniProt P18893 19-178; P18893 19-178) (ligand)
